# Laboratory results as given in PubChem BioAssay AID1487 (National Center for Advancing Translational Sciences (NCATS), 2009).
# The list shows a part of the results. These are further read-outs of the screen, such as a control signal, another cell line or another target. No call is given for them. The list favours compounds with an active or inconclusive main result. The note in brackets gives the kind of curve behind each potency; many fits are weak.
# Assay: qHTS Assay for Modulators of Lamin A Splicing
# Settings: HeLa LMNA splicing GFP/RFP minigene ratio, 48 h
# Procedure, shortened: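 Read-out is the ratio of GFP to DsRed2 object intensity, acquired by 488 nm laser-scanning cytometry on HeLa lamin A-EGFP minigene reporter cells. Compound incubation 48 hrs at 37 °C in Opti-MEM with 2% FBS; DMSO 0.5% final.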
# [1] = measured here: GFP splicing reporter channel
# [2] = measured here: RFP viability control channel
Structure (SMILES),AC50 [1],AC50 [2]
CC(C)CCC(C)NC(=O)c1ccc2nccnc2c1 (stereo not drawn),"0.01 µM [falling, full curve, poor fit]",
O=C(c1cc(S(=O)(=O)N2CCOCC2)c(Cl)cc1Cl)N1CCCCC1,,"35.5 µM [rising, single point]"
COc1ccc(/C=N/Nc2nc(-c3ccc(Cl)cc3)cc(C(F)(F)F)n2)c(OC)c1,"11.2 µM [rising, partial curve, poor fit]","12.6 µM [rising, single point]"
O=C(NCCc1ccc(Cl)cc1)C1CCC(CNc2c(N3CCCCC3)c(=O)c2=O)CC1 (stereo not drawn),,"31.6 µM [rising, single point]"
Cc1ccc(-c2nc(SCC(=O)Nc3cc(S(=O)(=O)N4CCCCC4)ccc3Cl)n[nH]2)cc1,"15.8 µM [rising, single point]","17.8 µM [rising, partial curve]"
CC(=O)N1N=C(N)SC1(C)C,,"11.2 µM [falling, partial curve, poor fit]"
Cc1cccc(NCc2ccc(O)c3ncccc23)c1,"2.82 µM [falling, single point]",
O=C(CSc1n[nH]c(-c2ccccc2Cl)n1)NCc1ccc(F)cc1,"0.794 µM [rising, full curve, poor fit]","0.708 µM [rising, full curve, poor fit]"
CNCC[C@H](Oc1ccccc1OC)c1ccccc1,,"0.000794 µM [falling, full curve, poor fit]"
COc1nn(-c2nc(-c3ccccc3)cc(C(F)(F)F)n2)cc1[N+](=O)[O-],,"35.5 µM [falling, single point]"
Cc1cc(SCC(=O)N/N=C/c2ccc(O)c(O)c2O)c(C)cc1Br,,"31.6 µM [rising, single point]"
Cc1c(Cl)cccc1NS(=O)(=O)c1ccc(-c2cnc(C3CC3)o2)cc1,"0.355 µM [rising, full curve]","0.251 µM [rising, full curve]"
COCc1cc(C)nc(SCC(=O)Oc2ccc(Cl)cc2)c1C#N,"0.112 µM [falling, full curve, poor fit]",
CC(C)Cc1csc(NC(=O)c2ccc(Cl)cc2)c1C(=O)O,"10 µM [rising, partial curve, poor fit]","14.1 µM [rising, partial curve, poor fit]"
CCC(=O)N1c2ccccc2CC1C(=O)NCc1cc(OC)ccc1OC (stereo not drawn),,"0.501 µM [rising, full curve, poor fit]"
CCCCC1=CC2=CC(=O)C(C)(OC(=O)CC)C(=O)C2=CN1Cc1ccccc1 (stereo not drawn),"0.00112 µM [rising, full curve, poor fit]",
N/C(=N\OC(=O)N1c2ccccc2Sc2ccccc21)c1ccccc1,,"0.141 µM [rising, full curve, poor fit]"
CC(C)(C)c1nc2ccccc2c2nnc(SCC(=O)Nc3nc4ccccc4s3)n12,"28.2 µM [falling, single point]","35.5 µM [falling, single point]"
CC(C)c1ccc(NC(=O)c2cc(S(=O)(=O)N(C)C3CCCCC3)ccc2F)cc1,,"15.8 µM [rising, single point]"
C[C@@H](NC(=O)/C(C#N)=C/c1ccc(O)c(O)c1)c1ccccc1,"11.2 µM [falling, partial curve]",
CCOc1ccc(NC(=O)c2cc(S(=O)(=O)N3CCc4ccccc43)ccc2F)cc1,"28.2 µM [falling, partial curve]","25.1 µM [falling, partial curve]"
COc1ccc(-c2c(C)c3ccc(OCC(C)=O)cc3oc2=O)cc1,"14.1 µM [falling, single point]",
CCCCOc1ccc(CSCCNC(=S)Nc2ccccc2)cc1,,"35.5 µM [rising, single point]"
Cc1ccc(OCC(=O)Nc2ccc(S(=O)(=O)Nc3ccccn3)cc2)cc1,,"0.891 µM [falling, full curve, poor fit]"
O=[N+]([O-])c1cc(Cc2ccccc2)cc(C=Nc2ccc(N3CCOCC3)cc2)c1O,,"14.1 µM [rising, partial curve]"
CCN(CC)S(=O)(=O)c1cccc(C(=O)N/N=C/c2cccc(O)c2O)c1,,"14.1 µM [rising, partial curve]"
Cc1ccc(-n2cc(C(=O)Oc3ccc(F)cc3)c3ccccc3c2=O)cc1,"0.794 µM [rising, full curve, poor fit]","35.5 µM [rising, partial curve, poor fit]"
Cc1c(NC(=O)c2ccc(=O)oc2)c(=O)n(-c2ccccc2)n1C,"35.5 µM [falling, single point]","25.1 µM [falling, partial curve]"

# Part of the list above, with tabs:
Structure (SMILES)	AC50 [1]	AC50 [2]
COCc1cc(C)nc(SCC(=O)Oc2ccc(Cl)cc2)c1C#N	0.112 µM [falling, full curve, poor fit]	
CC(C)Cc1csc(NC(=O)c2ccc(Cl)cc2)c1C(=O)O	10 µM [rising, partial curve, poor fit]	14.1 µM [rising, partial curve, poor fit]

# Whole records as entered above.
# Cc1c(Cl)cccc1NS(=O)(=O)c1ccc(-c2cnc(C3CC3)o2)cc1 as listed: AC50 [1]: 0.355 µM [rising, full curve]; AC50 [2]: 0.251 µM [rising, full curve]
# N/C(=N\OC(=O)N1c2ccccc2Sc2ccccc21)c1ccccc1 as listed: AC50 [2]: 0.141 µM [rising, full curve, poor fit]

# Next structures

Structure (SMILES),AC50 [1],AC50 [2]
COC(=O)[C@H]1C[C@@H]1[C@H](NC(=O)[C@H]1C[C@@H]1[C@H](NC(=O)OCc1ccccc1)c1ccccc1)c1ccccc1,,"20 µM [falling, partial curve, poor fit]"
O=C(CCl)Nc1ccccc1C(=O)NCc1ccccc1,"14.1 µM [falling, partial curve, poor fit]","0.00794 µM [falling, full curve, poor fit]"
O=C(CSc1nc2ccccc2[nH]1)Nc1cc(C(F)(F)F)ccc1N1CCOCC1,"20 µM [rising, partial curve, poor fit]",
O=C(NCCCn1ccnc1)c1cccc(S(=O)(=O)N2CCCCCC2)c1,,"15.8 µM [rising, single point]"
COc1cccc(NC(=O)/C=C/c2ccco2)c1,,"8.91 µM [rising, partial curve]"
Cc1cc(NC(=O)C2CCCN2C(=O)Nc2cccc(Cl)c2)ccc1-n1cnnn1 (stereo not drawn),"2.82 µM [rising, partial curve]","5.62 µM [rising, partial curve, poor fit]"
Cc1ccc(C)c(Oc2ncnc(N)c2[N+](=O)[O-])c1,,"3.55 µM [rising, partial curve]"
COc1ccccc1N(C)S(=O)(=O)c1ccc(C(=O)NCc2ccc3c(c2)OCO3)cc1,,"17.8 µM [rising, single point]"
Cc1ccc(CNC(=O)Nc2cc(C(=O)NCc3ccc(C(C)C)cc3)ccc2N2CCCC2)cc1,"0.01 µM [rising, full curve, poor fit]",
CC(C)(C)OC(=O)N1CCC(c2c(C(=O)NCCN3CCc4ccccc4C3)cnn2-c2ccc(F)cc2)CC1,"5.62 µM [falling, partial curve, poor fit]","0.112 µM [falling, full curve]"
Cc1ccc(CN(c2ccc(C(=O)N3CCc4ccccc4C3)cc2)S(C)(=O)=O)cc1,,"12.6 µM [rising, single point]"
CCCc1nn(-c2cc(Cl)ccc2OC)c2c1C(=O)CC(C)(C)C2,"25.1 µM [rising, single point]","14.1 µM [rising, single point]"
CCSc1nnc(NC(=O)CSc2nc3c(c(=O)n2C)SC(C)C3)s1 (stereo not drawn),"10 µM [rising, partial curve]","10 µM [rising, partial curve]"
Cc1cc(SCCOc2ccc(Br)cc2)nc(N)n1,,"20 µM [rising, single point]"
O=c1c2c(nc3nc(NCc4cccc(Cl)c4)[nH]n13)CCC2,"2.82 µM [falling, partial curve, poor fit]",
Cc1ccccc1OCCNc1cc(N2CCN(CCO)CC2)ccc1[N+](=O)[O-],,"0.0501 µM [rising, partial curve, poor fit]"
COc1ccccc1-n1cc([C@@H]2C[C@H]3CN(c4ccccc4)C(=O)[C@]34CCCN24)cn1,,"0.794 µM [rising, partial curve, poor fit]"
CCOc1ccc(/C=C2\C(=O)c3ccccc3OC2c2ccccc2)cc1 (stereo not drawn),"35.5 µM [falling, single point]","35.5 µM [falling, single point]"
CSc1nc(Nc2ccc(F)cc2)cc(-c2ccccc2)n1,"35.5 µM [falling, single point]","35.5 µM [falling, single point]"
CCc1ccccc1NC(=O)Cn1cc(S(=O)(=O)N2CCCC2)c(S(=O)(=O)N2CCCC2)c1,"0.316 µM [falling, full curve, poor fit]",
O=C(O)c1ccc(N=C2SCC(=O)N2Cc2ccccc2)cc1,"3.16 µM [rising, single point]",
CC(C)(C)c1nnc2sc(SCC(=O)N3CCCc4ccccc43)nn2c1=O,"8.91 µM [rising, single point]",
C/C(=C\C(=O)c1ccc(Br)cc1)NCc1ccc(C)cc1,"11.2 µM [rising, single point]","14.1 µM [rising, single point]"
COc1ccc(OCC(=O)Nn2c(-c3cccc(OC)c3)nc3ccccc3c2=O)cc1,"11.2 µM [rising, partial curve]",
COc1ccc(F)cc1S(=O)(=O)Nc1cccc(C(=O)O)c1,"6.31 µM [falling, single point]","0.794 µM [falling, partial curve]"
CC(O)(CS(=O)(=O)Cc1cccc(C(F)(F)F)c1)C(=O)Nc1cccc(C(F)(F)F)c1 (stereo not drawn),,"12.6 µM [falling, partial curve]"
Cc1nc2[nH]c(=S)n(C)c(=O)c2nc1C,"4.47 µM [rising, single point]",
